Positions count from the first letter of the chain named. Results are given in words; binding and its absence hold for the method and conditions named. Some entries that bind do so weakly or less than the wild type.

By UniProt entry, the sequences of proteins in these tests, tags left out. Residues count along the entry.
UniProt P08603, residues 1107-1231: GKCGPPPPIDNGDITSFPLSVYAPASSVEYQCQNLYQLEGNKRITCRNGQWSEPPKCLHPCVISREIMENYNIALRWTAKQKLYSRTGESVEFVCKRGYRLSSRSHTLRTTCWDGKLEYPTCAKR

The source of these data is patent US20190315842A1.

For test [1], the target named is reduced SCR19-20 (human CFH short consensus repeat domains 19 and 20, reduced) (human) (UniProt P08603). The experiment in a line: ELISA: TCEP-reduced SCR19-20-biotin captured on Neutravidin, antibody at 0.2 µg/ml, anti-human IgG-HRP/ABTS, OD 405 nm. A general note: In an ELISA, binding on a coated surface is turned into a signal by an enzyme label.
Test [2] shares this target. The experiment in a line: immunoblot, SDS-PAGE under reducing conditions, antibody at 0.5 µg/ml, anti-human IgG-HRP, chemiluminescence; lane numbers as in Table 10. For orientation: In western blotting, separated proteins are transferred to a membrane and probed.
The target in test [3] is SCR19-20 (human CFH short consensus repeat domains 19 and 20) (human) (UniProt P08603). The experiment in a line: ELISA: non-reduced SCR19-20-biotin captured on Neutravidin, antibody at 0.2 µg/ml, anti-human IgG-HRP/ABTS, OD 405 nm.

B1: Ab7960/293i (antibody, IgG1, V domains shown)
VH: LVESGGGVVQPGKSLRLSCVASGFSFSTYGMHWVRQAPGKGLEWVAVMSFDGKTKYYADSVKGRFTISRDNPKNTLYLQMNSLRSEDTAVYYCAKGGAAAAVFDSWGPGILLTVSS
VL: MTQSPNSLAVSLGGRATINCKASQSILYRSNNKNYLAWYQHKAGQPPKLLIYWASTRESGVPERFSGSGSRTDFTLTINGLQAEDVAVYYCQQYYNPPWTFGQGTKVEIK
Take B1: the binding entry in test [1] and in test [2] was “binds” throughout.

B2: Ab7961/293i (antibody, IgG1, V domains shown)
VH: B1 VH with S25T, T28S, P108Q
VL: B1 VL with A22T, A43S, E63D, N79S
B2: the binding result in test [1] and in test [2] was “binds” throughout.

B3: Ab7979 (antibody, IgG1, V domains shown)
VH: B1 VH with S25T, P108Q
VL: B1 VL with A22T, A43P, G60R, E63D, N79S
For the molecule B3, the binding entry in test [1] and in test [2] was “binds” each time.

B4: Ab7955 (antibody, V domains shown)
VH: LVESGGGVVRPGRSLRLSCVASGFTFNAYGMHWVRQGPGKGLEWLAVISYEGKTVYYADSVKDRFTISRDNSRNTVSLHLNNLRGEDTAVYYCAKGSASAAVLQHWGQGTLVSVTS
VL: MTQSPGSLAVSLGSRATINCKSSRSLLYRSNNKNYLAWYQQKPGQSPRLLIYWASSRESGVPDRFSGGGSGTSFTLTISSLQAEDVAVYYCQQYFNPPWTFGQGTKVEIK
In the case of B4, the binding entry in test [1] and in test [2] was “binds” in each case.

B5: Ab7957/293i (antibody, IgG1, V domains shown)
VH: LVESGGGVVPPGKSLRLSCAASGFTFSLYGIHWVRQAPGKGLEWVAVISYDGNTKYYTDSVKGRFTISRDNAKNTIYLQMNSLRLDDTAVYYCAKGAANSATFDFWGRGTMVTVSS
VL: MTQSPDSLTLSLGERATINCRSSRTVLYRSNNKNYLAWYQHKPGQPPKLLMSWASTRETGVPDRFSGSGSGTHFTLTITSLQPEDVAVYYCQQYYSPPWTFGQGTKVEIR
On to B5, for which the binding result in test [1], in test [2] and in test [3] was “binds” throughout.
